Experimental data: the supplement of paper PMC8104966
The list shows a part of the results. Repeats in this data set agree poorly, so a single value says little.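 U2OS cells carrying ACE2 were mixed with U2OS cells carrying full-length spike, and fusion was scored by imaging as the share of nuclei showing both cell types' fluorescent markers. A compound counts as an inhibitory hit when it is non-toxic and its fusion z-score falls below -3, meaning more than three standard deviations below the plate's DMSO wells.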

test system: U2OS ACE2 x SARS-CoV-2 spike co-culture; assay: cell-cell fusion (fraction fused) z-score vs plate DMSO control; higher = more fusion; details: 30 µM; 5 h; toxicity class: non-toxic, passed QC

| SMILES | cell-cell fusion (z-score) |
| --- | --- |
| C[C@H](CCC(=O)O)[C@H]1CC[C@H]2[C@@H]3[C@H](O)C[C@@H]4C[C@H](O)CC[C@]4(C)[C@H]3C[C@H](O)[C@]12C [Cholic Acid] | inactive: 1.64 |
| C=C[C@](C)(O)CCC=C(C)C | inactive: 1.4 |
| COc1ccc2c(c1)CCC1C2CC[C@@]2(C)C1CC[C@@H]2NCCCCCCN1C(=O)CCC1=O (stereo not given in full) | inactive: 2.33 |
| CN1[C@@H]2CCC[C@H]1C[C@@H](NC(=O)c1nn(C)c3ccccc13)C2.Cl [Granisetron hydrochloride] | inactive: 2.71 |
| CC1Cc2ccccc2N1NC(=O)c1ccc(Cl)c(S(N)(=O)=O)c1 (stereo not given) | inactive: 2.06 |
| N[C@@H]1CONC1=O | inactive: 1.47 |
| N[C@@H]1CONC1=O [D-Cycloserine] | inactive: 2.34 |
| CCCCCCCCCCCCCCCC[N+](C)(C)CCN(Cc1ccc(OC)cc1)c1ncccn1.[Br-] | active: -6.77 |
| COC(=O)CC1C(C)(C)C(OC(C)=O)[C@@H]2[C@@H](OC(C)=O)[C@]34O[C@@]2(O)[C@]1(C)C3CC[C@]1(C)C4=CC(=O)O[C@H]1c1ccoc1 (stereo not given in full) | inactive: 1.84 |
| CC[C@H]1OC(=O)[C@H](C)[C@@H](O[C@H]2C[C@@](C)(OC)[C@@H](O)[C@H](C)O2)[C@H](C)[C@@H](O[C@@H]2O[C@H](C)C[C@H](N(C)C)[C@H]2O)[C@](C)(O)C[C@@H](C)C(=O)[C@H](C)[C@@H](O)[C@]1(C)O [Erythromycin] | inactive: 2.22 |
| COc1cc2c(cc1OC)-c1c(oc3c4c(ccc3c1=O)OC(C(C)C)C4)CO2 (stereo not given) | inactive: 1.59 |
| Cl.c1ccc2nc(C3=NCCN3)ccc2c1 [BU224 hydrochloride] | inactive: 2.58 |
| NCCCC[C@H](N[C@@H](CCc1ccccc1)C(=O)O)C(=O)N1CCC[C@H]1C(=O)O | inactive: -0.78 |
| CCCNC(C)C(=O)Nc1ccccc1C.Cl (stereo not given) [Prilocaine hydrochloride] | inactive: 0.734 |
| NC[C@@H]1O[C@H](O[C@H]2[C@@H](O)[C@H](O[C@@H]3[C@@H](O)[C@H](N)C[C@H](N)[C@H]3O[C@H]3O[C@H](CO)[C@@H](O)[C@H](O)[C@H]3N)O[C@@H]2CO)[C@H](N)[C@@H](O)[C@@H]1O.O=S(=O)(O)O [Paromomycin Sulfate] | inactive: 0.465 |
| C[C@@H]1O[C@@H](OC[C@H]2OC(Oc3c(-c4ccc(OCCO)c(OCCO)c4)oc4cc(OCCO)cc(O)c4c3=O)[C@H](O)[C@@H](O)[C@@H]2O)[C@H](O)[C@H](O)[C@H]1O (stereo not given in full) | inactive: 0.235 |
| Cc1cc2c(F)c(Oc3ncnn4cc(OC[C@@H](C)OC(=O)[C@H](C)N)c(C)c34)ccc2[nH]1 | inactive: -1.6 |
| Cc1ccc(Nc2c(F)cccc2Cl)c(CC(=O)O)c1 | inactive: 2.59 |
| CCOc1nc2cccc(C(=O)O)c2n1Cc1ccc(-c2ccccc2-c2nn[nH]n2)cc1 [Candesartan] | inactive: 1.47 |
| [Li][Cl] [Lithium Chloride] | inactive: 0.911 |
| CO[C@H]1C[C@@H]2CC[C@@H](C)[C@@](O)(O2)C(=O)C(=O)N2CCCC[C@H]2C(=O)O[C@H]([C@H](C)C[C@@H]2CC[C@@H](OC(=O)C(C)(CO)CO)[C@H](OC)C2)CC(=O)[C@H](C)/C=C(\C)[C@@H](O)[C@@H](OC)C(=O)[C@H](C)C[C@H](C)/C=C/C=C/C=C/1C [Temsirolimus] | inactive: 1.85 |
| CCOC(=O)[C@H](CCc1ccccc1)N[C@@H](C)C(=O)N1Cc2cc(OC)c(OC)cc2C[C@H]1C(=O)O.Cl [Moexipril HCl] | inactive: 1.78 |

Taken from above.
In cell-cell fusion (z-score), NCCCC[C@H](N[C@@H](CCc1ccccc1)C(=O)O)C(=O)N1CCC[C@H]1C(=O)O has inactive: -0.78
In cell-cell fusion (z-score), N[C@@H]1CONC1=O has inactive: 1.47
In cell-cell fusion (z-score), COc1cc2c(cc1OC)-c1c(oc3c4c(ccc3c1=O)OC(C(C)C)C4)CO2 (stereo not given) has inactive: 1.59
In cell-cell fusion (z-score), [Li][Cl] [Lithium Chloride] has inactive: 0.911

(further entries)

| SMILES | cell-cell fusion (z-score) |
| --- | --- |
| CN1CCN(CC(=O)N2c3ccccc3C(=O)Nc3cccnc32)CC1.Cl.Cl | inactive: 2.34 |
| Clc1ccc(CSC(Cn2ccnc2)c2ccc(Cl)cc2Cl)cc1.O=[N+]([O-])O (stereo not given) | inactive: 2.48 |
| O.O.O.O.O=C([O-])CC(O)(CC(=O)[O-])C(=O)[O-].[Li+].[Li+].[Li+] [Lithium citrate tribasic tetrahydrate] | inactive: 2.37 |
| Cc1cc(C)nc(NS(=O)(=O)c2ccc(NC(=S)NC(=O)COc3ccc(Br)cc3Cl)cc2)n1 | inactive: 0.295 |
| COc1ccc(C(=O)/C=C/c2ccccc2)cc1 | inactive: 2 |
| N[C@@H](CC(=O)N1CCn2c(nnc2C(F)(F)F)C1)Cc1cc(F)c(F)cc1F.O.O=P(O)(O)O | inactive: 2.73 |
| CCCCOc1cc(CC2CNC(=O)N2)ccc1OC (stereo not given) | inactive: 2.2 |
| O=C1C=C2CC3(O)COc4c(ccc(O)c4O)C3=C2C=C1O (stereo not given) | inactive: 2.3 |
| Cc1scc2c1N(C(=O)CN1CCN(C)CC1)c1ccccc1NC2=O.Cl.Cl [Telenzepine dihydrochloride] | inactive: 1.3 |
| CCN(CC)CCOC(=O)C1(C2CCCCC2)CCCCC1.Cl | inactive: 2.28 |
| CCN(CC)CCOC(=O)C1(C2CCCCC2)CCCCC1.Cl [Dicyclomine hydrochloride] | inactive: 4.94 |
| CCc1c(Cl)c(O)c(Cl)c(O)c1C(=O)O[C@H]1[C@H](O)[C@H](OC)[C@H](OC/C2=C\C=C\C[C@H](O)/C(C)=C/[C@H](CC)[C@@H](O[C@@H]3OC(C)(C)[C@@H](OC(=O)C(C)C)[C@H](O)[C@@H]3O)/C(C)=C/C(C)=C/C[C@@H]([C@@H](C)O)OC2=O)O[C@@H]1C [Fidaxomicin] | inactive: -2.37 |
| CC(C)=CCc1c(O)cc2oc(C)cc(=O)c2c1O | inactive: 2.38 |
| CS(=O)(=O)N1CCN(Cc2cc3nc(-c4cccc5[nH]ncc45)nc(N4CCOCC4)c3s2)CC1 | inactive: 0.587 |
| O=C(/C=C/c1ccc(O)cc1)c1ccc(O)cc1O | inactive: 0.988 |
| O=C(/C=C/c1ccc(O)cc1)c1ccc(O)cc1O [Isoliquiritigenin] | inactive: 0.546 |
| CCN(Cc1ccncc1)C(=O)C(CO)c1ccccc1 (stereo not given) [Tropicamide] | inactive: 1.17 |
| CCN(Cc1ccncc1)C(=O)C(CO)c1ccccc1 (stereo not given) | inactive: 1.28 |
| COC(=O)[C@H]1[C@H]2C[C@H]3c4[nH]c5cc(OC)ccc5c4CCN3C[C@H]2C[C@@H](OC(=O)c2cc(OC)c(OC)c(OC)c2)[C@@H]1OC | inactive: -1.81 |
| C[C@]12CCC3c4ccc(OC(=O)c5ccccc5)cc4CCC3C1CC[C@@H]2O (stereo not given in full) | inactive: 2.47 |
| C[N+](C)(C)CCCCCC[N+](C)(C)C.[Cl-].[Cl-] [Hexamethonium dichloride] | inactive: 2.06 |
| CCn1nc(C(=O)O)c(=O)c2cc3c(cc21)OCO3 [Cinoxacin] | inactive: 1.95 |

| SMILES | cell-cell fusion (z-score) |
| --- | --- |
| CCn1nc(C(=O)O)c(=O)c2cc3c(cc21)OCO3 | inactive: 0.284 |
| NCCCNCCSP(=O)(O)O [Amifostine] | inactive: 1.35 |
| Cc1cn([C@@H]2C[C@@H](O)[C@H](CO)O2)c(=O)[nH]c1=O [Telbivudine] | inactive: 0.55 |
| O=C([O-])CCCc1ccccc1.[Na+] [Sodium Phenylbutyrate] | inactive: 2.51 |
| CC(=O)CCCCn1c(=O)c2c(ncn2C)n(C)c1=O [Pentoxifylline] | inactive: 2.44 |
| Cc1ccc(Cl)c(Nc2ccccc2C(=O)[O-])c1Cl.[Na+] | inactive: 0.941 |
| CC1=C(/C=C/C(C)=C/C=C/C(C)=C/C(=O)Nc2ccc(O)cc2)C(C)(C)CCC1 [Fenretinide] | inactive: 0.866 |
| COc1ccc(-c2oc3cc(OC)ccc3c2C(=O)c2ccc(C#N)cc2)cc1 | inactive: 1.25 |
| CCCCC#Cc1nc(NC)c2ncn([C@@H]3O[C@H](CO)C(O)[C@@H]3O)c2n1 (stereo not given in full) | inactive: 0.811 |
| CCN[C@H]1C[C@H](C)S(=O)(=O)c2sc(S(N)(=O)=O)cc21.Cl [Dorzolamide hydrochloride] | inactive: 0.783 |
| C[N+]1(C)CCc2cc3c(cc2[C@H]1C1OC(=O)c2c1ccc1c2OCO1)OCO3.[I-] (stereo not given in full) | inactive: 1.93 |
| Cn1c(=O)c2[nH]cnc2n(C)c1=O [Theophylline] | inactive: 3.26 |
| Nc1nc(Nc2ccccc2)nc2c1ncn2[C@@H]1O[C@H](CO)[C@H](O)C1O (stereo not given in full) [2-Phenylaminoadenosine] | inactive: -0.92 |
| OC(CCN1CCCCC1)(c1ccccc1)C1CC2C=CC1C2 (stereo not given) | inactive: 1.33 |
| COc1ccc(CN2CCNCC2)c(OC)c1OC.Cl.Cl | inactive: 0.744 |
| COc1cc2ncnc(Oc3cccc(NC(=O)Nc4cc(C(C)(C)C(F)(F)F)on4)c3)c2cc1OC | inactive: 0.267 |
| NS(=O)(=O)c1nn2cc(-c3ccccc3)nc2s1 | inactive: 1.85 |
| CC(=O)O[C@H]1CC[C@]2(C)C3CC[C@@]4(C)C(CC5O[C@@]6(CCC(C)CO6)[C@@H](C)C54)C3CC[C@@H]2C1 (stereo not given in full) | inactive: 2.74 |
| C[C@]12CCC(=O)C=C1CCC1C2CC[C@@]2(C)C1CC[C@@H]2O (stereo not given in full) | inactive: 1.49 |
| CN(C)CCOC(c1ccccc1)c1ccccc1.Cn1c(=O)c2[nH]c(Cl)nc2n(C)c1=O [Dimenhydrinate] | inactive: 1.45 |
| CN(C)c1cc(NC(=O)CNC(C)(C)C)c(O)c2c1C[C@H]1C[C@H]3[C@H](N(C)C)C(O)=C(C(N)=O)C(=O)[C@@]3(O)C(O)=C1C2=O.O [Tigecycline] | inactive: 2.58 |
